{
  "source": "PubChem BioAssay AID504834",
  "about": "(National Center for Advancing Translational Sciences (NCATS), 2011)",
  "note": "Out of some 320,000 compounds screened, about 22,000 (6.9%) were called active. Inconclusive results, whose numbers are uncertain, are shown with a selection of clear calls. Calls come from the whole dose curve; as a rule, active = well fitted inhibition curve with a large enough effect; inconclusive = small, poorly fitted or top-dose-only effect, or another doubt; inactive = no such curve, though single readings can be large or run the other way. Where the call is inconclusive, the potency comes from a doubtful curve fit. % is set by controls: 0 for no effect and ±100 for the full control effect; potency is the fitted concentration of half-maximal effect.",
  "data": [
    {"test": "Primary qHTS for delayed death inhibitors of the malarial parasite plastid, 96 hour incubation", "details": "P. falciparum luciferase reporter growth; series mostly up to 28.7 µM", "how_it_was_run": "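Delayed-death screen, second-generation endpoint: infected erythrocytes, 2% hematocrit, 0.05% parasitemia final; 96 hours at 37 C, 5% CO2; luciferase detection reagent; luminescence decrease equals reduced growth.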", "values": [
      {"smiles": "COc1ccc(CC(=O)NCC2(N3CCCCC3)CCCCC2)cc1", "Potency": "inconclusive: 2.94 µM [inhibitor, partial curve, poor fit]"},
      {"smiles": "COc1ccc(C(=O)NC(=S)Nc2cccc(Cl)c2N2CCOCC2)cc1[N+](=O)[O-]", "Potency": "inconclusive: 20.8 µM [inhibitor, single point]"},
      {"smiles": "O=C(NCCc1c[nH]c2ccccc12)C(=O)NCC(c1ccco1)N1CCN(c2ccccc2F)CC1", "note": "(stereo unspecified)", "Potency": "inconclusive: 16.5 µM [inhibitor, single point]"},
      {"smiles": "CC1CCCCC1NC(=O)CC1Oc2ccccc2NC1=O", "note": "(stereo unspecified)", "Potency": "inactive"},
      {"smiles": "CCc1cc[n+](-c2nc3ccccc3nc2[N-]S(=O)(=O)c2ccc(Br)s2)cc1", "Potency": "inconclusive: 0.465 µM [inhibitor, full curve, poor fit]"},
      {"smiles": "O=C(CSCc1ccccc1Cl)N/N=C/c1ccco1", "Potency": "active: 13.1 µM"},
      {"smiles": "O=C(NNC(=O)c1ccccn1)c1cccc([N+](=O)[O-])c1", "Potency": "inactive"},
      {"smiles": "CCOC(=O)Cc1nnc(Nc2ccc(C)cc2C)c2ccccc12", "Potency": "active: 4.65 µM"},
      {"smiles": "O=C(NNS(=O)(=O)c1ccc2ccccc2c1)c1cccnc1", "Potency": "inactive"},
      {"smiles": "COc1ccccc1NC(=O)N1CCCC1", "Potency": "inconclusive: 9.28 µM [inhibitor, single point]"},
      {"smiles": "COC(=O)c1cc2ccsc2n1Cc1cccc(F)c1", "Potency": "inconclusive: 10.4 µM [inhibitor, single point]"},
      {"smiles": "CCOC(=O)C1C2C=CC3(CN(Cc4ccccc4)C(=O)C13)O2", "note": "(stereo unspecified)", "Potency": "inconclusive: 18.5 µM [inhibitor, single point]"},
      {"smiles": "CC(=O)NC1C(=O)N=C(SC(C)C(=O)Nc2cccc(Cl)c2)NC1=O", "note": "(stereo unspecified)", "activity change, negative = inhibition": "inactive: 2.65% [at 5.75 µM]"},
      {"smiles": "CS(=O)(=O)N1CCC(C(=O)NCc2ccc(Cl)cc2)CC1", "Potency": "inactive"},
      {"smiles": "Cc1ccc2nc(SCC(=O)c3ccc4c(c3)OCO4)[nH]c2c1", "Potency": "inconclusive: 18.5 µM [inhibitor, partial curve, poor fit]"},
      {"smiles": "CCOC(=O)c1sc(NC(=O)c2ccc(S(=O)(=O)N(C)C)cc2)cc1C", "Potency": "active: 5.22 µM"},
      {"smiles": "CCCCc1ccc(NC(=O)C2CCCO2)cc1", "note": "(stereo unspecified)", "Potency": "inactive"},
      {"smiles": "Cc1ccc(NC(=O)Cc2n[nH]c(=O)c3ccccc23)cc1S(=O)(=O)N1CCCCCC1", "Potency": "inconclusive: 18.5 µM [inhibitor, single point]"},
      {"smiles": "COc1cc2c(cc1NC(=O)COC(=O)[C@@H](NS(=O)(=O)c1ccccc1)C(C)C)oc1ccccc12", "Potency": "inactive"},
      {"smiles": "CCOC(=O)c1cnn(C)c1NC(=O)c1ccc([N+](=O)[O-])cc1", "Potency": "inactive"},
      {"smiles": "NC(=O)CC(NC(=O)c1ccccc1)c1ccc(NCc2ccc(F)cc2)c([N+](=O)[O-])c1", "note": "(stereo unspecified)", "Potency": "inconclusive: 11.7 µM [inhibitor, single point]"},
      {"smiles": "CC1(c2ccc(OC(F)F)cc2)NC(=O)N(CC(=O)Nc2cccnc2Cl)C1=O", "note": "(stereo unspecified)", "Potency": "inconclusive: 0.37 µM [inhibitor, partial curve, poor fit]"},
      {"smiles": "OCCC1CN(Cc2nc3ccccc3s2)CCN1C1CCCC1", "note": "(stereo unspecified)", "Potency": "inconclusive: 10.4 µM [inhibitor, single point]"},
      {"smiles": "COc1ccccc1-c1nn(-c2ccccc2)cc1C(=O)NC1CC1", "Potency": "inconclusive: 18.5 µM [inhibitor, single point]"},
      {"smiles": "Cc1ccc2c(c1)cc(CN(Cc1cccnc1)C(=O)NCc1ccccc1)c1nnnn12", "Potency": "inconclusive: 10.4 µM [inhibitor, single point]"},
      {"smiles": "O=C(CSc1ccc2c(c1)OCCO2)Nc1ccc(Br)cn1", "Potency": "inactive"},
      {"smiles": "Cc1ccccc1C(=O)NN1CC(C(=O)OCc2ccc(Cl)c(Cl)c2)CC1=O", "note": "(stereo unspecified)", "Potency": "inactive"},
      {"smiles": "Cc1ccc(C(=O)c2cc3c(cc2[N+](=O)[O-])OCCO3)cc1", "Potency": "inactive"},
      {"smiles": "Cc1ccc(C2=NN(C(=O)CCCC(=O)O)C(c3ccc4c(c3)OCO4)C2)cc1", "note": "(stereo unspecified)", "Potency": "inconclusive: 9.28 µM [inhibitor, partial curve, poor fit]"},
      {"smiles": "O=C(NCCc1ccccc1)C(=O)c1c(-c2ccccc2)cc2ccccn12", "Potency": "inconclusive: 3.29 µM [inhibitor, partial curve, poor fit]"},
      {"smiles": "CN(C)CCn1c2c(c(SCC(=O)Nc3cccc4ccccc34)nc1=O)CCCC2", "Potency": "inconclusive: 20.8 µM [inhibitor, single point]"},
      {"smiles": "CCOC(=O)C1CCN(CC(=O)NC(=O)NC2CCCCC2)CC1", "Potency": "inconclusive: 18.5 µM [inhibitor, single point]"},
      {"smiles": "COc1ccc(N(CC(=O)N2CCN(Cc3ccccc3)CC2)S(C)(=O)=O)cc1", "Potency": "inactive"},
      {"smiles": "COc1ccc(NC(=O)CCC(=O)N(Cc2ccc(OC)c(OC)c2)c2nccs2)cc1", "Potency": "inconclusive: 18.5 µM [inhibitor, single point]"},
      {"smiles": "CCOC(=O)C[n+]1c(C)ccc2c1CCC2", "Potency": "active: 8.28 µM"},
      {"smiles": "O=C(c1nnc(Cc2ccc(Cl)cc2)o1)N1CCc2ccccc2C1", "Potency": "inactive"},
      {"smiles": "CC(NC(=O)c1ccc(S(=O)(=O)Nc2ccccc2)cc1)c1ccc(S(N)(=O)=O)cc1", "note": "(stereo unspecified)", "Potency": "inactive"},
      {"smiles": "CCc1cccc(NS(=O)(=O)c2ccc3c(c2)n(C)c(=O)n3C)c1", "Potency": "active: 4.65 µM"},
      {"smiles": "CCOC(=O)/C(=C/c1c(C)n(C)c2ccc([N+](=O)[O-])cc12)C(C)=O", "Potency": "inactive"},
      {"smiles": "CCOC(=O)C1CCN(C(=O)c2cccs2)CC1", "Potency": "inactive"},
      {"smiles": "Cc1ccc(C(=O)N2CCN(c3ccc(N4CCOCC4)nn3)CC2)cc1C", "Potency": "active: 5.22 µM"},
      {"smiles": "CC(=O)C1=C(C)NC(SCC(=O)c2ccc(F)cc2)=C(C#N)C1c1ccco1", "note": "(stereo unspecified)", "Potency": "inconclusive: 10.4 µM [inhibitor, single point]"},
      {"smiles": "O=C(c1ccc(-c2ccccc2)cc1)N1CCCC1", "Potency": "inactive"},
      {"smiles": "O=C1NC(c2ccc(Cl)cc2)Oc2ccccc21", "note": "(stereo unspecified)", "Potency": "inconclusive: 0.828 µM [inhibitor, full curve, poor fit]"},
      {"smiles": "COc1ccccc1CC(=O)Nc1cc2oc3ccccc3c2cc1OC", "Potency": "inconclusive: 11.7 µM [inhibitor, partial curve, poor fit]"},
      {"smiles": "Cc1cc(NC(=O)COC(=O)C2CCN(S(=O)(=O)c3ccccc3)CC2)c([N+](=O)[O-])cc1C", "Potency": "inactive"},
      {"smiles": "Cc1ccccc1OC1CCN(C(=O)c2cc(COc3ccccc3)on2)CC1", "Potency": "inconclusive: 18.5 µM [inhibitor, partial curve, poor fit]"},
      {"smiles": "COC(=O)c1c(NC(=O)c2ccccc2)sc(C(N)=O)c1C", "Potency": "inactive"},
      {"smiles": "CN(CC1CCOCC1)C(=O)CC1C(=O)NCCN1Cc1cccc(Oc2ccccc2)c1", "note": "(stereo unspecified)", "Potency": "inconclusive: 18.5 µM [inhibitor, single point]"},
      {"smiles": "NC(=O)c1ccsc1NC(=O)c1ccc(S(=O)(=O)N2CCCCC2)cc1", "Potency": "inconclusive: 18.5 µM [inhibitor, single point]"},
      {"smiles": "Cc1cc(C)c(NC(=O)CNC(=O)c2cc(C3CC3)nn2-c2ccccc2)c(C)c1", "Potency": "inconclusive: 7.38 µM [inhibitor, partial curve, poor fit]"},
      {"smiles": "COc1ccc(OC)c(NC(=O)c2sc3ncnc(N4CCN(c5ccccn5)CC4)c3c2C)c1", "Potency": "inconclusive: 18.5 µM [inhibitor, single point]"},
      {"smiles": "COc1ccc(CNS(=O)(=O)c2ccc3c(c2)N(C)CCO3)cc1", "Potency": "inconclusive: 0.0738 µM [inhibitor, full curve, poor fit]"},
      {"smiles": "CS(=O)(=O)Nc1cccc(C2=NN(S(C)(=O)=O)C(c3ccc4c(c3)OCO4)C2)c1", "note": "(stereo unspecified)", "Potency": "active: 2.33 µM"},
      {"smiles": "COc1ccc(-c2ccc(SCC(=O)Nc3nccs3)nn2)cc1OC", "Potency": "inactive"},
      {"smiles": "COc1ccc(/C=N/NC(=O)c2cccc(NC(=O)c3ccc(F)cc3)c2)c(C(=O)O)c1OC", "Potency": "inconclusive: 11.7 µM [inhibitor, single point]"},
      {"smiles": "Cn1c(CCCC(=O)O)nc2cc(N(CCCl)CCCl)ccc21", "Potency": "inconclusive: 19 µM [inhibitor, single point]"},
      {"smiles": "O=C1COc2ccc(S(=O)(=O)Nc3ccc(OC(F)(F)F)cc3)cc2N1", "Potency": "inactive"},
      {"smiles": "CCOC(=O)C1(Cc2cccc(F)c2)CCN(C(=O)c2cscn2)CC1", "Potency": "inconclusive: 0.165 µM [inhibitor, full curve, poor fit]"},
      {"smiles": "OCCCc1nc2n(n1)C(c1ccccc1)C=C(c1ccc(F)cc1)N2", "note": "(stereo unspecified)", "Potency": "inactive"},
      {"smiles": "CCOc1ccc(CN2CCCC(N3CCN(c4ccc(OC)cc4)CC3)C2)cc1", "note": "(stereo unspecified)", "Potency": "inconclusive: 10.4 µM [inhibitor, single point]"},
      {"smiles": "Cc1nn(-c2nnc(NC3CCCCC3)nn2)c(C)c1Br", "Potency": "inconclusive: 1.47 µM [inhibitor, full curve, poor fit]"},
      {"smiles": "CCN1CCN(CCCNC(=O)C(=O)c2c(C)[nH]c3ccccc23)CC1", "Potency": "inactive"},
      {"smiles": "CC1(C)NC(=O)N(CCCCOc2ccc(Cl)cc2C=O)C1=O", "Potency": "inactive"},
      {"smiles": "COc1ccc(C)cc1S(=O)(=O)N(CC(=O)Nc1cc([N+](=O)[O-])ccc1C)c1ccc(C)c(C)c1", "Potency": "inconclusive: 18.5 µM [inhibitor, single point]"},
      {"smiles": "CCOC(=O)C1C(=O)NC(N2CCN(Cc3ccccc3)CC2)=NC1c1ccco1", "note": "(stereo unspecified)", "Potency": "inconclusive: 16.5 µM [inhibitor, single point]"},
      {"smiles": "O=C(c1cccc2c1-c1ccccc1C2)N1CCCCC1", "Potency": "inconclusive: 0.0657 µM [inhibitor, full curve, poor fit]"},
      {"smiles": "O=C(NCCC1=CCCCC1)c1cc(COc2ccc(F)cc2Cl)on1", "Potency": "inconclusive: 18.5 µM [inhibitor, single point]"},
      {"smiles": "Cc1cc(-c2nnc(CCC(=O)N(C)Cc3cccc4ccccc34)o2)no1", "Potency": "inconclusive: 18.5 µM [inhibitor, single point]"},
      {"smiles": "Cc1ccc(CSCc2ccc(C(=O)NCCC(C)C)o2)cc1", "Potency": "inconclusive: 4.15 µM [inhibitor, partial curve]"},
      {"smiles": "COc1cc(S(=O)(=O)Nc2ccccc2C)ccc1NC(=O)c1ccncc1", "Potency": "inconclusive: 1.04 µM [inhibitor, partial curve, poor fit]"}
    ]}
  ]
}
